Publication PMC10063672
These are yes or no findings as the source states them, for the method shown. In cells and extracts the contact can be indirect. Some entries that bind do so weakly or less than the wild type. Where a sequence is shown, tags or fusion partners need not be part of it.

Molecular target: T1, Flag-tagged ADCY9 (adenylyl cyclase 9) expressed in COS-1 cells (UniProt O60503)
T1 sequence: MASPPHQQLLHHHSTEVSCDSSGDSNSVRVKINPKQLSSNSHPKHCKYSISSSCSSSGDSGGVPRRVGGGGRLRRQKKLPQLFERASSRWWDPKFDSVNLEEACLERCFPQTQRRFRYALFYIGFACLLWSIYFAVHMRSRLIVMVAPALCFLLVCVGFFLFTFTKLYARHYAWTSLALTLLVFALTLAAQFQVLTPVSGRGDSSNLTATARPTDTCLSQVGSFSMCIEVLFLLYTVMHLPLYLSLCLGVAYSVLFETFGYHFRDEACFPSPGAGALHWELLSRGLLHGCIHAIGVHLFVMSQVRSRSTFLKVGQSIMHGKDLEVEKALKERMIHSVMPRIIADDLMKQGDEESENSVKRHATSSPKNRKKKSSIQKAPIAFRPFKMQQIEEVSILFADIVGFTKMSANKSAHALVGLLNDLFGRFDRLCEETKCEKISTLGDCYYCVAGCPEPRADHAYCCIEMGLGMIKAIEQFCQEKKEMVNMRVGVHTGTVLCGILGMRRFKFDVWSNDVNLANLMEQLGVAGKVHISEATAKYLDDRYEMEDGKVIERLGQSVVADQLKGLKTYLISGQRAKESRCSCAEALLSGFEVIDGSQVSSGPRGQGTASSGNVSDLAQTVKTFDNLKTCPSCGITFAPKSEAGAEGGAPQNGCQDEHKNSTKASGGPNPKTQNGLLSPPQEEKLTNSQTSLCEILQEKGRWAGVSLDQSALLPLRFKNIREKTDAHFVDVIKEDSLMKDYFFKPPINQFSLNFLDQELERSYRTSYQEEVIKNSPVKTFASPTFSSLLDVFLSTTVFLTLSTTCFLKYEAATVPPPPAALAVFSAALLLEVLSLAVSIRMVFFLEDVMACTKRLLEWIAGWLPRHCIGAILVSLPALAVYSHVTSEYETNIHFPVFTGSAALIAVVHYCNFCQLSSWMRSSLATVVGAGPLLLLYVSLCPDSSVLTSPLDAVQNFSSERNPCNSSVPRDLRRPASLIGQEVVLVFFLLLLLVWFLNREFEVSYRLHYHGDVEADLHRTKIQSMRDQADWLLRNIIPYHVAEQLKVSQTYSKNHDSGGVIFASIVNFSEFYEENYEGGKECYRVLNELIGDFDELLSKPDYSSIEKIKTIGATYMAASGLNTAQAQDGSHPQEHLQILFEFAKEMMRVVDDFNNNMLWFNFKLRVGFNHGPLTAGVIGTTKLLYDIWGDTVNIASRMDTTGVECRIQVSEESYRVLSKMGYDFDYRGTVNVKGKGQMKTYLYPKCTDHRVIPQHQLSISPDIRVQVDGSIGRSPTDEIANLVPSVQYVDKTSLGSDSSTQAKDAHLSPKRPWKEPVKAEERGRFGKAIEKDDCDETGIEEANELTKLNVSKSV
Assay: co-IP; lysates of Cos-1 cells co-transfected with ADCY9-FLAG and BVES-3xHA; precipitated with anti-Flag antibody and protein A/G agarose beads

- binding: binds
B1: BVES-3xHA (HA-tagged BVES) expressed in COS-1 cells (protein, UniProt Q8NE79 1-360)
chain: MNYTESSPLRESTAIGFTPELESIIPVPSNKTTCENWREIHHLVFHVANICFAVGLVIPTTLHLHMIFLRGMLTLGCTLYIVWATLYRCALDIMIWNSVFLGVNILHLSYLLYKKRPVKIEKELSGMYRRLFEPLRVPPDLFRRLTGQFCMIQTLKKGQTYAAEDKTSVDDRLSILLKGKMKVSYRGHFLHNIYPCAFIDSPEFRSTQMHKGEKFQVTIIADDNCRFLCWSRERLTYFLESEPFLYEIFRYLIGKDITNKLYSLNDPTLNDKKAKKLEHQLSLCTQISMLEMRNSIASSSDSDDGLHQFLRGTSSMSSLHVSSPHQRASAKMKPIEEGAEDDDDVFEPASPNTLKVHQLP
